These are yes or no findings as the source states them, for the method shown. Binding seen in cells or lysates may run through a third protein. A result given as binding can be weak or reduced; the word gives no strength.
Legend:
[1] = target: YN-B55β1 (UniProt Q00005); assay: co-IP
[2] = target: YN-B55β1 (UniProt Q00005); assay: split reporter; equal amounts of the YN- and YC-fusion constructs co-transfected into NIH3T3 cells, fixed 24 h later, YFP read by fluorescence microscopy; in Fig. 3B also after aphidicolin (early S phase)
[3] = target: YN-B55β1 (UniProt Q00005); assay: split reporter; Aα-YC or YC-Aα, YN-B and pCMV5-SMTWT, pCMV5-SMTMUT or empty vector (1:1:2) co-transfected into NIH3T3 cells, YFP read 24 h later

Amino acid sequences for entries named in this document (tags omitted). A change or cut given only in a name is not applied to a line headed by its entry.
UniProt Q00005: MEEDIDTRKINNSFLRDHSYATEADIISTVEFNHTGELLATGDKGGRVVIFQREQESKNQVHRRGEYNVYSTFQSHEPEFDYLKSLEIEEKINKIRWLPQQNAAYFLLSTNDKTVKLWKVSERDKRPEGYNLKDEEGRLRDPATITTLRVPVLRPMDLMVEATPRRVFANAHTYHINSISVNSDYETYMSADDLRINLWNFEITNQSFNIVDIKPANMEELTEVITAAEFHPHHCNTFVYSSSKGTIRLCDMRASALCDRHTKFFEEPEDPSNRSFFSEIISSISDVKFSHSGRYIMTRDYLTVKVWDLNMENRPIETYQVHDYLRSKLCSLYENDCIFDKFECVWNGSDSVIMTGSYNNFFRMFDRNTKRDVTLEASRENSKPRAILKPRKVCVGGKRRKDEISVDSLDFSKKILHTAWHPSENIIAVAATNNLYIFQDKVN
UniProt P63330: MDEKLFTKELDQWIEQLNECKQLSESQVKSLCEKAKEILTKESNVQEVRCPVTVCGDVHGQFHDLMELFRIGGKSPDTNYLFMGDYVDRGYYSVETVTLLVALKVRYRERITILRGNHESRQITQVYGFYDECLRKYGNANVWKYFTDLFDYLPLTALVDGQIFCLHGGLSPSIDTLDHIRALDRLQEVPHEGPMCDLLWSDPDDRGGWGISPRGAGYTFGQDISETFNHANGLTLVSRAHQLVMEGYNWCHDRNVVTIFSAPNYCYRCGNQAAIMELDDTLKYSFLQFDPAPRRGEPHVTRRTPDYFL

Row | binding [1] | binding [2] | binding [3] | Substance
1 | binds |  |  | endogenous PP2Ac subunit (from UniProt P63330 1-309)
2 |  | binds |  | YC-Aα (from UniProt P30153 1-589)
3 | binds |  |  | endogenous PP2A/A subunit (from UniProt Q76MZ3 1-589)
4 | binds | binds | binds | Aα-YC (from UniProt P30153 1-589)

Reference: article PMC4275284
